Experimental data: PubChem BioAssay AID686938 (Drosophila RNAi Screening Center, 2013)

- Test: 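Knock-downs reducing store-operated calcium influx in Drosophila cells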 (primary screen)
- System: Drosophila S2R+ cells
- Reagent: long dsRNA against Drosophila genes, about 0.25 µg dsRNA per well, roughly 10,000 cells
- Time to read-out: 5 days of knock-down before the calcium assay
- Treatment: thapsigargin (SERCA pump blocker) to empty calcium stores; entry signal taken 4 min after adding it
- Detection: 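Per-well fluo-4 fluorescence in two replicates, unnormalised, measured in resting cells and 4 min after store depletion by the SERCA blocker thapsigargin; ratio of the two present in few wells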
- Reading the numbers: calcium entry signal: higher = stronger calcium signal after store depletion; entry to resting ratio: higher = more calcium entry relative to resting level; resting calcium signal: higher = higher resting calcium signal
- Rule for the call: 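Called when the plate z-score of the entry-to-rest ratio, mean of duplicates, falls below −3; wells with low overall dye signal (Fmax z below −2) or more than five off-targets excluded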
- Meaning of the calls: active = strongly reduced calcium entry; inactive = no strong reduction
The screen tested about 23,000 reagents; shown is an unselected part of those that have a named target and a result. In the full data, 75 (0.33%) are marked active. 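Raw plate signals without normalisation; calls rest on plate z-scores that were not deposited; ratio present for only 364 wells.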 Reagents against one gene are numbered here. Reagent sequences are not shown. Not given: the dose of the treatment.

| Target gene | dsRNA no. | calcium entry signal, replicate 1 (fluorescence units) | calcium entry signal, replicate 2 (fluorescence units) | entry to resting ratio | resting calcium signal, replicate 1 (fluorescence units) | resting calcium signal, replicate 2 (fluorescence units) | Call |
| --- | --- | --- | --- | --- | --- | --- | --- |
| Sfp38D | 1 | 3.56e7 | 7.06e7 | – | 1.52e7 | 2.67e7 | inactive |
| Ugt37B1 | 1 | 3.70e7 | 3.65e7 | – | 1.96e7 | 1.79e7 | inactive |
| l(3)neo38 | 1 | 3.26e7 | 4.24e7 | – | 1.75e7 | 1.98e7 | inactive |
| l(3)neo38 | 2 | 3.28e7 | 3.52e7 | – | 1.71e7 | 1.77e7 | inactive |
| l(3)neo38 | 3 | 2.98e7 | 3.41e7 | – | 1.52e7 | 1.43e7 | inactive |
| CG31793 | 1 | 3.67e7 | 3.58e7 | – | 1.72e7 | 1.63e7 | inactive |
| Cmtr1 | 1 | 2.47e7 | 3.31e7 | – | 1.21e7 | 1.57e7 | inactive |
| CG7402 | 1 | 5.50e7 | 7.96e7 | – | 2.54e7 | 2.81e7 | inactive |
| Vrp1 | 1 | 1.18e7 | – | – | 9.47e6 | – | inactive |
| CG17328 | 1 | 5.09e7 | 3.70e7 | – | 2.19e7 | 1.78e7 | inactive |
| CG17328 | 2 | 3.60e7 | 2.87e7 | – | 1.55e7 | 1.10e7 | inactive |
| WASp | 1 | 3.71e7 | 4.84e7 | – | 1.84e7 | 1.85e7 | inactive |
| Pat1 | 1 | 3.61e7 | 3.73e7 | – | 1.67e7 | 1.65e7 | inactive |
| CG18081 | 1 | 4.25e7 | 7.52e7 | – | 2.14e7 | 2.67e7 | inactive |
| Yeti | 1 | 5.90e7 | 3.91e7 | – | 3.12e7 | 2.20e7 | inactive |
| RpL41 | 1 | 3.16e7 | 3.20e7 | – | 1.52e7 | 1.44e7 | inactive |
| Gdap2 | 1 | 4.21e7 | 4.59e7 | – | 1.91e7 | 1.94e7 | inactive |
| Gdap2 | 2 | 4.01e7 | 5.39e7 | – | 1.79e7 | 2.02e7 | inactive |
| COX3 (retired record) | 1 | 3.81e7 | 4.06e7 | – | 2.21e7 | 2.04e7 | inactive |
| CG11714 | 1 | 4.02e7 | 3.09e7 | – | 2.56e7 | 1.48e7 | inactive |
| CG14017 | 1 | 2.84e7 | 2.78e7 | – | 1.44e7 | 1.40e7 | inactive |
| CG13192 | 1 | 3.21e7 | 4.14e7 | – | 1.76e7 | 1.92e7 | inactive |
| CG14718 | 1 | 2.76e7 | 3.24e7 | – | 1.18e7 | 1.46e7 | inactive |
| HDAC11 | 1 | 3.17e7 | 3.06e7 | – | 1.48e7 | 1.43e7 | inactive |
| Rbbp5 | 1 | 2.13e7 | 2.90e7 | – | 1.02e7 | 1.33e7 | inactive |
| CanB2 | 1 | 4.75e7 | 2.97e7 | – | 2.29e7 | 1.61e7 | inactive |
| Ddx56 | 1 | 2.24e7 | 1.90e7 | – | 1.31e7 | 1.06e7 | inactive |
| velo | 1 | 2.87e7 | 3.86e7 | – | 1.51e7 | 1.87e7 | inactive |
| velo | 2 | 3.33e7 | 2.48e7 | – | 2.24e7 | 1.17e7 | inactive |
| Or83c | 1 | 4.67e7 | 4.22e7 | – | 2.31e7 | 1.99e7 | inactive |
| CG3819 | 1 | 1.96e7 | 3.34e7 | – | 1.16e7 | 1.51e7 | inactive |
| Muc30E | 1 | 4.57e7 | 6.86e7 | – | 2.23e7 | 3.41e7 | inactive |
| CheA87a | 1 | 2.65e7 | 4.83e7 | – | 1.47e7 | 6.90e7 | inactive |
| TkR99D | 1 | 4.11e7 | 5.00e7 | – | 2.11e7 | 2.26e7 | inactive |
| Irk1 | 1 | 4.07e7 | 6.31e7 | – | 2.05e7 | 2.52e7 | inactive |
| Irk1 | 2 | 4.07e7 | 6.40e7 | – | 2.33e7 | 2.87e7 | inactive |
| aus | 1 | 5.96e7 | 3.99e7 | – | 2.84e7 | 1.90e7 | inactive |
| aus | 2 | 5.06e7 | 3.71e7 | – | 2.67e7 | 1.89e7 | inactive |
| aus | 3 | 5.17e7 | 4.17e7 | – | 2.10e7 | 1.53e7 | inactive |
| Cbs | 1 | 3.68e7 | 3.39e7 | – | 1.74e7 | 1.65e7 | inactive |
| CG13248 | 1 | 2.42e7 | 3.88e7 | – | 1.16e7 | 1.71e7 | inactive |
| CG13532 | 1 | 4.04e7 | 4.47e7 | – | 2.03e7 | 2.14e7 | inactive |
| CG11060 | 1 | 3.74e7 | – | – | 2.06e7 | – | inactive |
| hry | 1 | 4.27e7 | 3.50e7 | – | 2.73e7 | 1.78e7 | inactive |
| hry | 2 | 3.64e7 | 3.68e7 | – | 2.08e7 | 1.67e7 | inactive |
| D19B | 1 | 3.19e7 | 5.61e7 | – | 1.52e7 | 2.42e7 | inactive |
| CG5953 | 1 | 1.79e7 | 3.30e7 | – | 1.15e7 | 1.55e7 | inactive |
| CG5953 | 2 | 4.92e7 | 3.60e7 | – | 2.32e7 | 1.92e7 | inactive |
| Phf7 | 1 | 4.85e7 | 4.21e7 | – | 2.29e7 | 2.01e7 | inactive |
| inc | 1 | 3.12e7 | 4.19e7 | 2.1 | 1.46e7 | 1.62e7 | inactive |
| inc | 2 | 2.05e7 | 2.88e7 | – | 1.01e7 | 1.46e7 | inactive |
| Ir67b | 1 | 1.54e7 | 2.07e7 | – | 8.76e6 | 9.84e6 | inactive |
| lmd | 1 | 5.68e7 | 4.08e7 | – | 2.54e7 | 1.84e7 | inactive |
| CG31638 | 1 | 2.08e7 | 1.83e7 | – | 1.17e7 | 1.04e7 | inactive |
| CG31638 | 2 | 2.40e7 | 1.96e7 | – | 1.28e7 | 9.74e6 | inactive |
| CG17027 | 1 | 3.39e7 | 4.49e7 | – | 1.67e7 | 3.08e7 | inactive |
| fusl | 1 | 4.19e7 | – | – | 2.35e7 | – | inactive |
| Pak | 1 | 3.80e7 | 4.60e7 | – | 1.60e7 | 1.96e7 | inactive |
| Pak | 2 | 5.48e7 | 3.22e7 | – | 2.61e7 | 1.39e7 | inactive |
| CG12279 | 1 | 3.20e7 | 3.84e7 | – | 1.47e7 | 1.79e7 | inactive |
| EloC | 1 | 4.42e7 | 4.56e7 | – | 2.44e7 | 2.47e7 | inactive |
| CG7497 | 1 | 3.21e7 | 3.84e7 | – | 1.42e7 | 2.61e7 | inactive |
| apn | 1 | 2.77e7 | 3.19e7 | – | 1.36e7 | 4.80e7 | inactive |
| qless | 1 | 3.02e7 | 6.59e7 | – | 1.70e7 | 3.47e7 | inactive |
| qless | 2 | 3.07e7 | 6.19e7 | – | 1.60e7 | 2.89e7 | inactive |
| wtrw | 1 | 2.41e7 | 2.40e7 | – | 1.04e7 | 1.25e7 | inactive |
| wtrw | 2 | 4.48e7 | 5.90e7 | – | 2.09e7 | 2.55e7 | inactive |
| Rab3GAP1 | 1 | 3.81e7 | 5.01e7 | – | 1.84e7 | 2.00e7 | inactive |
| Rab3GAP1 | 2 | 4.05e7 | 4.98e7 | – | 1.98e7 | 2.06e7 | inactive |
| Akr1B | 1 | 3.77e7 | 3.14e7 | – | 2.63e7 | 1.38e7 | inactive |
| CG7006 | 1 | 2.85e7 | 2.56e7 | – | 1.52e7 | 1.29e7 | inactive |
| Octbeta1R | 1 | 4.07e7 | 3.92e7 | – | 4.28e7 | 1.74e7 | inactive |
| CG4377 | 1 | 3.17e7 | – | – | 1.60e7 | – | inactive |
| CG13716 | 1 | 2.90e7 | 2.61e7 | – | 1.75e7 | 1.25e7 | inactive |
| CG13716 | 2 | 3.50e7 | 3.49e7 | – | 1.67e7 | 1.85e7 | inactive |

Part of the list above, limited to “calcium entry signal, replicate 2 (fluorescence units)”.
CG12279	3.84e7
EloC	4.56e7
CG7497	3.84e7
apn	3.19e7
qless #1	6.59e7
qless #2	6.19e7
wtrw #1	2.40e7
wtrw #2	5.90e7
Rab3GAP1 #1	5.01e7
Rab3GAP1 #2	4.98e7
